According to paper PMC8155856, “Synthesis and Characterization of Radiogallium-Labeled Cationic Amphiphilic Peptides as Tumor Imaging Agents” (Cancers, 2021):
Non-standard residues stand in square brackets, D forms with d. Residues, ends and D or L forms follow the SMILES beside them. *: point of attachment. NOTA = O=C(O)CN1CCN(CC(=O)O)CCN(CC(=O)*)CC1

Columns and labels:
[1] = Zeta potential of CAP-liposome mixtures; conditions: for Change of zeta potential of liposomes on addition of CAPs: 0, 10 or 20 µM, 1 h, 37 °C, 10 mM HEPES pH 7.4, n = 3; for Affinity for negatively charged phospholipids (regions containing PS): from zeta potential and CD spectra, neutral solution
[2] = CD spectroscopy of CAP-liposome mixture; conditions: 150 μM; for Secondary structure by CD in buffer alone: 50 mM BTP, 150 mM NaF, pH 7.4, 37 °C; for CD spectrum with negatively charged DOPC/DOPS (1:1) vesicles: pH 7.4 buffer

| Compound | Change of zeta potential of liposomes on addition of CAPs [1] | Affinity for negatively charged phospholipids (regions containing PS) [1] | Secondary structure by CD in buffer alone [2] | CD spectrum with negatively charged DOPC/DOPS (1:1) vesicles [2] |
| --- | --- | --- | --- | --- |
| CC(C)[C@H](NC(=O)[C@H](CCCNC(=N)N)NC(=O)[C@@H](NC(=O)[C@H](CCCNC(=N)N)NC(=O)[C@@H](NC(=O)[C@H](CCCNC(=N)N)NC(=O)[C@@H](NC(=O)[C@@H]1CCCN1C(=O)[C@H]1CCCN1C(=O)[C@@H](NC(=O)[C@H](CCCNC(=N)N)NC(=O)[C@@H](NC(=O)[C@H](CCCNC(=N)N)NC(=O)[C@@H](NC(=O)[C@H](CCCNC(=N)N)NC(=O)[C@@H](NC(=O)[C@H](CCCNC(=N)N)NC(=O)CN1CCN(CC(=O)O)CCN(CC(=O)O)CC1)C(C)C)C(C)C)C(C)C)C(C)C)[C@@H](C)O)C(C)C)C(C)C)C(=O)N[C@@H](CCCNC(=N)N)C(N)=O [NOTA-RV6] ({NOTA}-RVRVRVRV[dP]PTRVRVRVR-NH2) | dose-dependent increases | high affinity | random coils | characteristic of the β-sheet |
| CC(C)[C@H](NC(=O)[C@H](Cc1c[nH]cn1)NC(=O)[C@@H](NC(=O)[C@H](Cc1c[nH]cn1)NC(=O)[C@@H](NC(=O)[C@H](Cc1c[nH]cn1)NC(=O)[C@@H](NC(=O)[C@@H]1CCCN1C(=O)[C@H]1CCCN1C(=O)[C@@H](NC(=O)[C@H](Cc1c[nH]cn1)NC(=O)[C@@H](NC(=O)[C@H](Cc1c[nH]cn1)NC(=O)[C@@H](NC(=O)[C@H](Cc1c[nH]cn1)NC(=O)[C@@H](NC(=O)[C@H](Cc1c[nH]cn1)NC(=O)CN1CCN(CC(=O)O)CCN(CC(=O)O)CC1)C(C)C)C(C)C)C(C)C)C(C)C)[C@@H](C)O)C(C)C)C(C)C)C(=O)N[C@@H](Cc1c[nH]cn1)C(N)=O [NOTA-HV6] ({NOTA}-HVHVHVHV[dP]PTHVHVHVH-NH2) |  | lower binding affinity | mixture of random coils and β-sheets | did not significantly change |
| CC(C)[C@H](NC(=O)[C@H](CCCCN)NC(=O)[C@@H](NC(=O)[C@H](CCCCN)NC(=O)[C@@H](NC(=O)[C@H](CCCCN)NC(=O)[C@@H](NC(=O)[C@@H]1CCCN1C(=O)[C@H]1CCCN1C(=O)[C@@H](NC(=O)[C@H](CCCCN)NC(=O)[C@@H](NC(=O)[C@H](CCCCN)NC(=O)[C@@H](NC(=O)[C@H](CCCCN)NC(=O)[C@@H](NC(=O)[C@H](CCCCN)NC(=O)CN1CCN(CC(=O)O)CCN(CC(=O)O)CC1)C(C)C)C(C)C)C(C)C)C(C)C)[C@@H](C)O)C(C)C)C(C)C)C(=O)N[C@@H](CCCCN)C(N)=O [NOTA-KV6] ({NOTA}-KVKVKVKV[dP]PTKVKVKVK-NH2) | dose-dependent increases | high affinity | random coils | characteristic of the β-sheet |
